In this assay the target is human CD39 on cells (human) (UniProt P49961). The assay is described as follows: FACS, 15 ug/ml mAb on CHO cells expressing WT human CD39 (row WT, M1-V510); scored yes/NO. In general terms: A flow cytometer gives signals particle by particle.

Chains of the proteins cited; added tags and fusions are not shown. Lines headed by an entry give the natural chain unless they say otherwise; changes in a name come on top.
UniProt P49961: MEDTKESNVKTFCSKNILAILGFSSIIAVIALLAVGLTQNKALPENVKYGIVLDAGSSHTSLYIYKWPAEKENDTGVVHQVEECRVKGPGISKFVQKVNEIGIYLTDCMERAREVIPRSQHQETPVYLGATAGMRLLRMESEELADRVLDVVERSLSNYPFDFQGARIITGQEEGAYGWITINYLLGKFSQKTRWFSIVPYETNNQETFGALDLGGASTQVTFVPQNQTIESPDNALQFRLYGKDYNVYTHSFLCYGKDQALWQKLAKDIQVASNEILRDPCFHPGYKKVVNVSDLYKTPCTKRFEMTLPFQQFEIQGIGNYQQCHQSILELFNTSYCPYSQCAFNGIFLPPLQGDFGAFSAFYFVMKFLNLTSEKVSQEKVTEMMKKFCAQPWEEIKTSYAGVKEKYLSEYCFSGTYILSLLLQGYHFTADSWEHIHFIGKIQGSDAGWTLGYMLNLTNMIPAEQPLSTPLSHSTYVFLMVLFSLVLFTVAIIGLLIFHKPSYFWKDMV

Results are given in words; binding and its absence hold for the method and conditions named. Some entries that bind do so weakly or less than the wild type.

B1: 31873 (antibody, V domains shown)
VH: QVQLVQSGAEVKKPGSSVKVSCKASGGTFSKYGISWVRQAPGQGLEWMGSIIPEFGIANYAQKFQGRVTITADESTSTAYMELSSLRSEDTAVYYCARESGGYRDHRLGVWGQGTMVTVSS
VL: EIVMTQSPATLSVSPGERATLSCRASQSVGSNLAWYQQKPGQAPRLLIYGASTRASGIPARFSGSGSGTEFTLTISSLQSEDFAVYYCQQYLLWPLTFGGGTKVEIKR
Turning to B1, the binding result is “binds”.

These data come from patent US20250026850A1.
